{"source": "PubChem BioAssay AID652259 (Drosophila RNAi Screening Center, 2013)", "screen": "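Genome-wide hunt for genes that control Wingless pathway activity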 (primary screen)", "cells": "Drosophila clone 8 imaginal disc epithelial cells", "reagent": "long dsRNA against Drosophila genes", "challenge": "pathway stimulated by co-transfected Wingless expression plasmid", "detection": "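Dual luciferase reads per well after Wingless plasmid stimulation: reporter firefly light and Renilla control light; activity is firefly divided by Renilla, a ratio not deposited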", "direction": "firefly reporter light: higher = more Wg reporter light, before normalisation; Renilla control light: higher = more transfected or surviving cells", "hit rule": "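Strong candidates differ from their plate mean by at least two out of four per-plate statistical tests; weak candidates meet just one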", "calls": "active = candidate regulator (raises or lowers reporter); inactive = not a candidate", "note": "The screen tested about 22,000 reagents; shown is a random part of those with a known target gene and a result. Of all reagents, 233 (1.1%) are marked active. 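Light values are raw, unnormalised plate reads; the ratio scores behind the reporter calls were not deposited.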 A number with no mark means an inactive call. A plus sign joins genes that one reagent is predicted to hit. Not given: the amount of reagent, the time to read-out, the dose of the treatment."}
{"target gene":"Eaat1","dsRNA":"DRSC03321","firefly reporter light, replicate 1":3209,"firefly reporter light, replicate 2":7058,"Renilla control light, replicate 1":874,"Renilla control light, replicate 2":3030}
{"target gene":"His1:CG33816 + His1:CG33828 + His1:CG33819 + 21 more","dsRNA":"DRSC21266","firefly reporter light, replicate 1":24262,"Renilla control light, replicate 1":7676}
{"target gene":"nonA-l","dsRNA":"DRSC17017","firefly reporter light, replicate 1":10941,"Renilla control light, replicate 1":2648}
{"target gene":"EMC8-9","dsRNA":"DRSC04380","firefly reporter light, replicate 1":7345,"Renilla control light, replicate 1":1349}
{"target gene":"Baldspot","dsRNA":"DRSC09671","firefly reporter light, replicate 1":11549,"Renilla control light, replicate 1":4419}
{"target gene":"CG11262","dsRNA":"DRSC09831","firefly reporter light, replicate 1":5010,"Renilla control light, replicate 1":2285}
{"target gene":"CG16824","dsRNA":"DRSC02525","firefly reporter light, replicate 1":4272,"firefly reporter light, replicate 2":9392,"Renilla control light, replicate 1":1082,"Renilla control light, replicate 2":3412}
{"target gene":"RabX5","dsRNA":"DRSC08608","firefly reporter light, replicate 1":6329,"Renilla control light, replicate 1":2825}
{"target gene":"Obp57c + Obp57b","dsRNA":"DRSC21914","firefly reporter light, replicate 1":2.47e5,"firefly reporter light, replicate 2":2.97e5,"Renilla control light, replicate 1":1.10e5,"Renilla control light, replicate 2":1.23e5}
{"target gene":"CG13110","dsRNA":"DRSC02208","firefly reporter light, replicate 1":1637,"firefly reporter light, replicate 2":4969,"Renilla control light, replicate 1":969,"Renilla control light, replicate 2":2453}
{"target gene":"CG14207","dsRNA":"DRSC19562","firefly reporter light, replicate 1":3285,"firefly reporter light, replicate 2":9171,"Renilla control light, replicate 1":1402,"Renilla control light, replicate 2":2630}
{"target gene":"CG14207","dsRNA":"DRSC19563","firefly reporter light, replicate 1":19494,"Renilla control light, replicate 1":12042}
{"target gene":"Polr3A","dsRNA":"DRSC19766","firefly reporter light, replicate 1":16288,"Renilla control light, replicate 1":7440}
{"target gene":"Roc1b + Cdc5","dsRNA":"DRSC08687","firefly reporter light, replicate 1":5240,"Renilla control light, replicate 1":3893}
{"target gene":"CG2685","dsRNA":"DRSC18463","firefly reporter light, replicate 1":14425,"Renilla control light, replicate 1":9468}
{"target gene":"CAH9","dsRNA":"DRSC15963","firefly reporter light, replicate 1":7285,"Renilla control light, replicate 1":4050}

Entries above whose target name begins with R or r (2):
{"target gene":"RabX5","dsRNA":"DRSC08608","firefly reporter light, replicate 1":6329,"Renilla control light, replicate 1":2825}
{"target gene":"Roc1b + Cdc5","dsRNA":"DRSC08687","firefly reporter light, replicate 1":5240,"Renilla control light, replicate 1":3893}

Continued.
{"target gene":"CG18324","dsRNA":"DRSC06721","firefly reporter light, replicate 1":11776,"Renilla control light, replicate 1":3288}
{"target gene":"RpL4","dsRNA":"DRSC16833","firefly reporter light, replicate 1":2437,"firefly reporter light, replicate 2":6810,"Renilla control light, replicate 1":656,"Renilla control light, replicate 2":1089}
{"target gene":"Nadk2","dsRNA":"DRSC07072","firefly reporter light, replicate 1":11511,"Renilla control light, replicate 1":2955}
{"target gene":"dos","dsRNA":"DRSC07992","firefly reporter light, replicate 1":1915,"Renilla control light, replicate 1":586}
{"target gene":"dos","dsRNA":"DRSC08713","firefly reporter light, replicate 1":4470,"Renilla control light, replicate 1":1930}
{"target gene":"Lamtor3","dsRNA":"DRSC02815","firefly reporter light, replicate 1":3288,"firefly reporter light, replicate 2":7856,"Renilla control light, replicate 1":1291,"Renilla control light, replicate 2":3371}
{"target gene":"CG11294","dsRNA":"DRSC17777","firefly reporter light, replicate 1":25010,"Renilla control light, replicate 1":6582}
{"target gene":"Mco4","dsRNA":"DRSC20061","firefly reporter light, replicate 1":16455,"Renilla control light, replicate 1":6829}
{"target gene":"CG12995","dsRNA":"DRSC19515","firefly reporter light, replicate 1":19250,"Renilla control light, replicate 1":7408}
{"target gene":"schlank","dsRNA":"DRSC18102","firefly reporter light, replicate 1":21906,"Renilla control light, replicate 1":9091}
{"target gene":"schlank","dsRNA":"DRSC18313","firefly reporter light, replicate 1":20516,"Renilla control light, replicate 1":10118}
{"target gene":"CG17207","dsRNA":"DRSC15198","firefly reporter light, replicate 1":12832,"Renilla control light, replicate 1":3005}
{"target gene":"CG13708","dsRNA":"DRSC08317","firefly reporter light, replicate 1":1360,"firefly reporter light, replicate 2":6955,"Renilla control light, replicate 1":838,"Renilla control light, replicate 2":3105}
{"target gene":"PolH","dsRNA":"DRSC11800","firefly reporter light, replicate 1":9972,"Renilla control light, replicate 1":4699}
{"target gene":"Clk","dsRNA":"DRSC11117","firefly reporter light, replicate 1":1927,"firefly reporter light, replicate 2":12017,"Renilla control light, replicate 1":935,"Renilla control light, replicate 2":2439}
{"target gene":"CG7694","dsRNA":"DRSC16288","firefly reporter light, replicate 1":16852,"Renilla control light, replicate 1":3648}
